Source: the supplement of paper PMC10331698
± gives the standard deviation of the averaged measurements. Small differences around the control level are noise.

How the values were obtained:
Assay in all cases: level (log10 ratio to DMSO vehicle control); higher = higher biomarker level / cell amount than vehicle control
[1] = compound: C=C(C)C(=O)OCCC(F)(F)C(F)(F)C(F)(F)C(F)(F)C(F)(C(F)(F)F)C(F)(F)F [(Perfluoro-5-methylhexyl)ethyl 2-methylprop-2-enoate]; settings: in DMSO
Description: (§1)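 BioMAP Diversity Plus panel of 12 human primary cell co-culture systems (3C, 4H, LPS, SAg, BT, BF4T, BE3C, CASM3C, HDF3CGF, KF3CT, MyoF, Mphg). Compounds were added 1 h before stimulation and left for 24 h (MyoF 48 h; BT 72 h for soluble read-outs or 6 d for IgG). Biomarkers were read by ELISA, cytotoxicity by SRB, PBMC viability and proliferation by Alamar Blue. Each well value was divided by the mean of 8 DMSO control wells on the same plate and log10 transformed; duplicate blinded samples were tested at 4 concentrations.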

[2] = compound: C=C(C)C(=O)OCCC(F)(F)C(F)(F)C(F)(F)C(F)(F)C(F)(F)C(F)(F)C(F)(F)C(F)(F)F [8:2 Fluorotelomer methacrylate]; settings: in DMSO
Description: as §1

[3] = compound: COC(=O)CCC(F)(F)C(F)(F)C(F)(F)C(F)(F)F [Methyl 2H,2H,3H,3H-perfluoroheptanoate]; settings: 2200 nM; in DMSO
Description: as §1

[4] = compound: FC(F)(F)C(F)(F)C(F)(F)C(F)(F)C(F)(F)CCI [1-Iodo-1H,1H,2H,2H-perfluoroheptane]; settings: 2200 nM; in DMSO
Description: as §1

[5] = compound: NC(=O)C(F)(F)C(F)(F)C(F)(F)C(F)(F)C(N)=O [Octafluoroadipamide]; settings: 2200 nM; in DMSO
Description: as §1

[6] = compound: NC(=O)C(F)(F)C(F)(F)C(F)(F)C(F)(F)F [Nonafluoropentanamide]; settings: 2200 nM; in DMSO
Description: as §1

[7] = compound: NS(=O)(=O)C(F)(F)C(F)(F)C(F)(F)C(F)(F)C(F)(F)C(F)(F)F [Perfluorohexanesulfonamide]; settings: 2200 nM; in DMSO
Description: as §1

[8] = compound: O=C(O)C(F)(F)C(F)(F)C(=O)O [Tetrafluorosuccinic acid]; settings: 2200 nM; in DMSO
Description: as §1

[9] = compound: O=C(O)C(F)(F)C(F)(F)C(F)(F)C(F)(F)C(F)(F)C(F)(F)C(F)(F)C(F)(F)Cl [9-Chloro-perfluorononanoic acid]; settings: in DMSO
Description: as §1

[10] = compound: O=C(O)CCC(F)(F)C(F)(F)C(F)(F)C(F)(F)C(F)(F)F [2H,2H,3H,3H-Perfluorooctanoic acid]; settings: 2200 nM; in DMSO
Description: as §1

[11] = compound: O=S(=O)(O)C(F)(F)C(F)(F)OC(F)(F)C(F)(F)F [Perfluoro(2-ethoxyethane)sulfonic acid]; settings: 2200 nM; in DMSO
Description: as §1

[12] = compound: O=S(=O)(O)CCC(F)(F)C(F)(F)C(F)(F)C(F)(F)C(F)(F)C(F)(F)F [6:2 Fluorotelomer sulfonic acid]; settings: in DMSO
Description: as §1

[13] = compound: OC(C(F)(F)F)(C(F)(F)F)C(O)(C(F)(F)F)C(F)(F)F [Perfluoropinacol]; settings: in DMSO
Description: as §1

[14] = compound: OCCC(F)(F)C(F)(F)C(F)(F)C(F)(F)F [4:2 Fluorotelomer alcohol]; settings: 2200 nM; in DMSO
Description: as §1

| Test System | level (log10) ([1]; 740 nM) | level (log10) ([1]; 2200 nM) | level (log10) ([1]; 6700 nM) | level (log10) ([1]; 20000 nM) | level (log10) ([2]; 740 nM) | level (log10) ([2]; 2200 nM) | level (log10) [3] | level (log10) [4] | level (log10) [5] | level (log10) [6] | level (log10) [7] | level (log10) [8] | level (log10) ([9]; 2200 nM) | level (log10) ([9]; 6700 nM) | level (log10) ([9]; 20000 nM) | level (log10) [10] | level (log10) [11] | level (log10) ([12]; 2200 nM) | level (log10) ([12]; 6700 nM) | level (log10) ([12]; 20000 nM) | level (log10) ([12]; 60000 nM) | level (log10) ([13]; 2200 nM) | level (log10) ([13]; 6700 nM) | level (log10) ([13]; 20000 nM) | level (log10) [14] |
| --- | --- | --- | --- | --- | --- | --- | --- | --- | --- | --- | --- | --- | --- | --- | --- | --- | --- | --- | --- | --- | --- | --- | --- | --- | --- |
| BT:sIL-2 | -0.032 ± 0.051 | -0.0355 ± 0.04 | -0.0185 ± 0.025 | -0.0245 ± 0.039 | 0.007 ± 0.081 | -0.0075 ± 0.049 | 0.045 ± 0.035 | 0.029 ± 0.0057 | 0.115 ± 0.11 | 0.0555 ± 0.037 | 0.025 ± 0.0042 | 0.0095 ± 0.035 | -0.0595 ± 0.015 | -0.0175 ± 0.066 | -0.0565 ± 0.1 | 0.064 ± 0.035 | 0.051 ± 0.0085 | 0.0125 ± 0.023 | -0.0555 ± 0.011 | 0.0325 ± 0.018 | -0.01 ± 0.031 | 0.111 ± 0.087 | 0.107 ± 0.059 | 0.0335 ± 0.071 | -0.001 ± 0.086 |
| KF3CT:PAI-I | -0.008 ± 0.024 | -0.0185 ± 0.052 | -0.035 ± 0.047 | -0.05 ± 0.018 | 0.001 ± 0.033 | -0.0065 ± 0.016 | -0.0055 ± 0.0064 | -0.008 ± 0.011 | -0.0065 ± 0.012 | 0.0045 ± 0.023 | -0.0085 ± 0.021 | 0.0285 ± 0.012 | -0.001 ± 0.024 | -0.01 ± 0.0057 | -0.101 ± 0.0078 | -0.0055 ± 0.016 | -0.004 ± 0.011 | -0.003 ± 0.0014 | 0.0025 ± 0.0021 | -0.012 ± 0.018 | -0.0135 ± 0.0092 | 0 ± 0.0057 | 0.001 ± 0.0042 | -0.0435 ± 0.012 | -0.0595 ± 0.098 |
| BE3C:PAI-I | -0.003 ± 0.041 | 0.016 ± 0.033 | 0.007 ± 0.03 | 0.0205 ± 0.019 | 0.0135 ± 0.04 | 0.011 ± 0.051 | -0.003 ± 0.0042 | -0.0175 ± 0.011 | -0.001 ± 0.0071 | -0.0205 ± 0.016 | -0.056 ± 0.038 | 0.012 ± 0.035 | 0.011 ± 0.0071 | 0.0005 ± 0.0035 | -0.215 ± 0.017 | -0.003 ± 0.0042 | -0.013 ± 0.0071 | -0.0125 ± 0.011 | -0.005 ± 0.0014 | 0.011 ± 0.0085 | 0.0435 ± 0.016 | -0.0315 ± 0.0035 | -0.119 ± 0.016 | -0.189 ± 0.0085 | -0.002 ± 0.035 |
| 4H:CD106/VCAM-1 | 0.001 ± 0.011 | -0.003 ± 0.0099 | -0.012 ± 0.016 | -0.0005 ± 0.005 | -0.013 ± 0.03 | -0.011 ± 0.023 | 0.005 ± 0.0085 | 0.024 ± 0.071 | 0.003 ± 0.024 | -0.0125 ± 0.00071 | -0.012 ± 0.018 | 0.0205 ± 0.047 | -0.032 ± 0.016 | -0.0145 ± 0.0078 | 0.0035 ± 0.013 | 0.0235 ± 0.023 | -0.004 ± 0.038 | 0.0185 ± 0.0064 | -0.0415 ± 0.0078 | -0.0245 ± 0.0021 | -0.0625 ± 0.033 | -0.013 ± 0.0014 | -0.043 ± 0.018 | -0.22 ± 0.02 | 0.017 ± 0.0028 |
| MyoF:SRB | 0.0005 ± 0.005 | 0.0085 ± 0.0064 | 0.001 ± 0.014 | -0.0035 ± 0.0078 | -0.0025 ± 0.0092 | 0.001 ± 0.0028 | -0.0035 ± 0.0064 | -0.0155 ± 0.022 | -0.006 ± 0.0071 | 0.003 ± 0.0099 | -0.014 ± 0.014 | 0.0055 ± 0.0035 | -0.002 ± 0.014 | -0.004 | -0.0605 ± 0.005 | 0.0035 ± 0.013 | -0.0005 ± 0.00071 | -0.006 ± 0.0099 | -0.002 ± 0.0014 | 0.0005 ± 0.0092 | -0.0015 ± 0.0021 | -0.01 ± 0.0014 | -0.012 | -0.0445 ± 0.0021 | 0.0005 ± 0.011 |
